# Measurements as given in PubChem BioAssay AID2073 (Sanford-Burnham Center for Chemical Genomics, 2009).
# Chains of the proteins cited; added tags and fusions are not shown.
# UniProt Q00975, whole entry, looked up: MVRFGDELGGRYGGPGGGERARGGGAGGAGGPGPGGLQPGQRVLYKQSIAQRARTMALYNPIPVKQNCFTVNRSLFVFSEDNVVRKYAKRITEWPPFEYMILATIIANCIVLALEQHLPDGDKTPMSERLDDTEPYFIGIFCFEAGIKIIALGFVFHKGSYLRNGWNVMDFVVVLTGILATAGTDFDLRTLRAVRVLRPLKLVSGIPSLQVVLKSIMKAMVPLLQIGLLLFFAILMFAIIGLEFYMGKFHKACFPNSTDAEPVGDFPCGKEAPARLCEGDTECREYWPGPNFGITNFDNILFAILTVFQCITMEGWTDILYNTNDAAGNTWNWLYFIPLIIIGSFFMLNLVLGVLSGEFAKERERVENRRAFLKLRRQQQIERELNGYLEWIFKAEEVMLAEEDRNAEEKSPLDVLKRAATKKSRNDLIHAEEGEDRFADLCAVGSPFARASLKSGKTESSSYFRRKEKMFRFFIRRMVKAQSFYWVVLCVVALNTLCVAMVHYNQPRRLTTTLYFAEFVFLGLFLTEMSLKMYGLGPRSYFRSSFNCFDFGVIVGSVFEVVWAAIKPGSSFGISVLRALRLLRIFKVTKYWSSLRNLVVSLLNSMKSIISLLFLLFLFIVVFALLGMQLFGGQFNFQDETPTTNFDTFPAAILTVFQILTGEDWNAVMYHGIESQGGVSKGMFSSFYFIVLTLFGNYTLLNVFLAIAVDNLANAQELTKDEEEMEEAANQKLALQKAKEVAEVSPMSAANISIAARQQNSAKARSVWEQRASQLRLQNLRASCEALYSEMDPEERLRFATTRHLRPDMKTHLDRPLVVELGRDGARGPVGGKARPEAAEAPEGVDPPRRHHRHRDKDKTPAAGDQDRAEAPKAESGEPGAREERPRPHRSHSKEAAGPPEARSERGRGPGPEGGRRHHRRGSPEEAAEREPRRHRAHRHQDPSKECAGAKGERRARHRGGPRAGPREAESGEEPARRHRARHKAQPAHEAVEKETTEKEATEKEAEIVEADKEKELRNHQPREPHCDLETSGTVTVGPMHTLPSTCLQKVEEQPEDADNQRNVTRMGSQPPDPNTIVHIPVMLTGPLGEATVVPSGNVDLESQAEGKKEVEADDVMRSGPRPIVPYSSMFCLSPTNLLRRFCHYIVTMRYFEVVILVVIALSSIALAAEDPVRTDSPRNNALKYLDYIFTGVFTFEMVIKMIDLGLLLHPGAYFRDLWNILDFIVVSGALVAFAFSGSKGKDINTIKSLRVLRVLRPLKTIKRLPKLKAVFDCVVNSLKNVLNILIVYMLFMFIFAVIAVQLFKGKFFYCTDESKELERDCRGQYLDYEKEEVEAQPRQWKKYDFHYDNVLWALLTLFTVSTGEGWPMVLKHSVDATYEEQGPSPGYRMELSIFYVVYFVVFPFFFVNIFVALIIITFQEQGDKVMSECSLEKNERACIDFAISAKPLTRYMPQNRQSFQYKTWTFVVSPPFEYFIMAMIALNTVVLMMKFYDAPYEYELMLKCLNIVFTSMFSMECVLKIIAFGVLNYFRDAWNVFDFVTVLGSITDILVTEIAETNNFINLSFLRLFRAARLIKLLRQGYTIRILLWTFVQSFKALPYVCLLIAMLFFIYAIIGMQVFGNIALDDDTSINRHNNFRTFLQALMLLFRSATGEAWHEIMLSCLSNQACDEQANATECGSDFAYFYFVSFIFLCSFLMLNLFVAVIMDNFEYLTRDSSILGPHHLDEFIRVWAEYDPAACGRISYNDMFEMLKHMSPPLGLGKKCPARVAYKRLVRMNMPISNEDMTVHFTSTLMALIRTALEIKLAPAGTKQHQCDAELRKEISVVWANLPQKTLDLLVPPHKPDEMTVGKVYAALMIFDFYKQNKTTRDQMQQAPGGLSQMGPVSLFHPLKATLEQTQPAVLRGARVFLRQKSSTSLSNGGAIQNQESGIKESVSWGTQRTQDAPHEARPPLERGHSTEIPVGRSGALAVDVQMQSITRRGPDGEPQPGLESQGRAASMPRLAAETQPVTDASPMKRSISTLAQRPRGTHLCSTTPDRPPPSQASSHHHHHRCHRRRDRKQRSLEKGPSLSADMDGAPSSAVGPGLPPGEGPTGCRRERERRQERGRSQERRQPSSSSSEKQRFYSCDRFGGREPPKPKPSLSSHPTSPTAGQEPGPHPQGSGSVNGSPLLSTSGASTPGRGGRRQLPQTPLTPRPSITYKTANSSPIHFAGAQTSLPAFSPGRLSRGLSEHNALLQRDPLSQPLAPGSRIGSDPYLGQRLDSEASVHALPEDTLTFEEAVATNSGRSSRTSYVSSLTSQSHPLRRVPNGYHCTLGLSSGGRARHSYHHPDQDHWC
# “And” between values parts separate entries of the source, which are not always exact repeats. Equal entries are not always repeated. Hit rate of the full screen: of about 290,000 compounds, about 570 (0.2%) were called active. The shares of active, inactive and inconclusive entries below differ from those in the screen. Rule as the data show it: active = inhibition mostly above about 51% (no sharp cut-off); inconclusive = no clear call, values can overlap the other calls; inactive = mostly below about 53%.
# Biological target: Voltage-dependent N-type calcium channel subunit alpha-1B (Homo sapiens) (UniProt Q00975)
# Experiment: disruptors of CaV2.2 binding to Mint1 – biochemical, HTRF (AID 2073)
# Conditions: HTRF protein-protein interaction, Mint1-CaV2.2; at 20 µM; stronger effect = higher value
row,Compound,inhibition
1,COc1ccc(-c2nc3ccc([N+](=O)[O-])cc3o2)cc1,inconclusive: 52%
2,Cn1nc(-c2ccccc2)c2ncc(C(F)(F)F)cc21,inconclusive: 71.2%
3,CC(C)Oc1ccc(CNC(=O)c2ccc3c(c2)N(C)CCS3)cc1,inconclusive: 50.8%
4,O=C(NCc1ccc(Cl)s1)c1cc(COc2c(F)cccc2F)on1,inconclusive: 50%
5,CCOC(=O)N1CCN(C(=O)CSc2nc3ccccc3c(=O)n2-c2ccccc2)CC1,inconclusive: 68.5%
6,N=c1n(CCN2CCCCC2)c2ccccc2n1CC(=O)c1cccs1,inconclusive: 59.3%
7,COc1ccc(OC)c(/C=C2\Oc3cc(OCC(=O)N4CCC(C(=O)O)CC4)ccc3C2=O)c1,inconclusive: 53.4%
8,COc1ccc(CCN2CCCC(CN(C)Cc3cc(OC)ccc3OC)C2)cc1 (centres undefined),inconclusive: 65.3%
9,CN(C)c1cc[n+](CC(=O)Nc2cccc([N+](=O)[O-])c2)cc1,inconclusive: 57%
10,Cc1ccc(Nc2c(-c3ccccn3)nc3cc(C)ccn23)cc1,active: 50.4%
11,CCOc1ccc(/C=C/C2=Cc3c(sc(NC(=O)CSc4n[nH]c(N)n4)c3C#N)C(C)(C)C2)cc1,inactive: 12.8%
12,CCC(C)(C)n1nnnc1CN1CCC(c2nc3ccc(C)cc3[nH]2)CC1,inconclusive: 53.5%
13,CCc1cc(CNC(=O)CC2C(=O)NCCN2CC2CCCCC2)on1 (centres undefined),inconclusive: 60.2%
14,COC(=O)c1c(C)oc(C)c1S(=O)(=O)N(Cc1ccccc1)C(C)C,inactive: -16.1%
15,O=C(COC(=O)/C=C/c1ccco1)NCc1ccccc1,inactive: 13.7%
16,CCc1ccc(-c2cc(C(=O)NCCCn3ccnc3)c3ccccc3n2)s1,inconclusive: 51.2%
17,O=C(O)Cn1c(O)c(C=Nc2ccccc2)sc1=S,inactive: -17.7% and inactive: -1.2%
18,N#Cc1ccccc1N=C1CCCN1Cc1ccccc1,inconclusive: 69.4%
19,O=C(N/N=C/C=C/c1ccco1)c1cccs1,inconclusive: 76.6%
20,CCOc1cc(C2CC(=O)N3CN(C4CCCCC4)CSC3=C2C#N)ccc1O (centres undefined),active: 62.4%

# Arranged by length of the SMILES (rising): part of the list above.
row,Compound,inhibition
19,O=C(N/N=C/C=C/c1ccco1)c1cccs1,inconclusive: 76.6%
2,Cn1nc(-c2ccccc2)c2ncc(C(F)(F)F)cc21,inconclusive: 71.2%
3,CC(C)Oc1ccc(CNC(=O)c2ccc3c(c2)N(C)CCS3)cc1,inconclusive: 50.8%
8,COc1ccc(CCN2CCCC(CN(C)Cc3cc(OC)ccc3OC)C2)cc1 (centres undefined),inconclusive: 65.3%

# Later entries:

row,Compound,inhibition
1,Cc1cc(NC2C3CC4CC(C3)CC2C4)n2ncnc2n1 (centres undefined),inconclusive: 88.2%
2,COc1ccccc1-c1nnc(NC(=O)c2ccc3c(c2)OCO3)s1,inconclusive: 60.4%
3,COc1ccccc1/C=C/C(=O)NCC(=O)N/N=C/c1ccccc1[N+](=O)[O-],inconclusive: 64.6%
4,COc1ccc(-c2ccnc3c(C(=O)O)cnn23)cc1,inconclusive: 58.5%
5,CCOc1ccc(N2C(=O)CC(S/C(N)=N/N=C/c3cccs3)C2=O)cc1 (centres undefined),inactive: 10.6%
6,CC(C)(C)OC(=O)N/N=C/c1cc(N=Nc2ccccc2)ccc1O,inactive: 3.5%
7,CCc1ccc(CN2C(=O)c3ccccc3C2C(=O)NCc2cccnc2)cc1 (centres undefined),inconclusive: 84.2%
8,NC(=O)CC(NC(=O)c1ccccc1)c1ccc(NCC2CC2)c([N+](=O)[O-])c1 (centres undefined),inconclusive: 71.6%
9,CCOC(=O)c1c(N)sc(C(N)=O)c1C,inconclusive: 59%
10,Cn1ccnc1Sc1nc2ccccc2nc1NS(=O)(=O)c1ccccc1,inconclusive: 59.1%
11,O=S(=O)(NCc1ccccc1Cl)c1cccs1,inconclusive: 51.4%
12,COc1ccc(CNC(=O)Cn2nc([N+](=O)[O-])c(Br)c2C)cc1,inactive: 2.9%
13,C=C(C)CSc1[nH]c(=O)cc(C)c1C#N,inactive: 1.3%
14,O=S(=O)(O)c1ccc(N2N=C(c3ccccc3)CC2c2ccccc2)cc1 (centres undefined),inconclusive: 58%
15,CC1CC2C3CCC4=CC(=O)C=CC4(C)C3(F)C(O)CC2(C)C1(O)C(=O)CO (centres undefined),inconclusive: 52.8%
16,COc1ccccc1CNc1ncnc2cc(Cl)ccc12,inconclusive: 58.7%
17,Cc1ccsc1C(=O)N(CC(C)C)c1c(N)n(Cc2ccccc2)c(=O)[nH]c1=O,inconclusive: 85.8%
18,COc1ccc(Cn2c3nc4ccccc4nc3c3c(=O)n(Cc4ccco4)c(C)nc32)cc1,inactive: 18.4%
19,CCOc1ccccc1NC(=O)COC(=O)C(CC)c1ccccc1 (centres undefined),inconclusive: 86.3%
20,O=C(N/N=C/c1ccc(O)cc1O)c1ccc(CN2C(=O)c3cccc4cccc2c34)cc1,active: 69.5%

row,Compound,inhibition
1,COc1ccc(C(=O)O)cc1S(=O)(=O)NCc1cccnc1,inconclusive: 50.7%
2,Nc1c(C(=O)Nc2ccccc2)sc2nc(-c3ccco3)ccc12,inconclusive: 64.8%
3,CCc1cccc(OCC(=O)Nc2ccc(S(=O)(=O)Nc3ccccn3)cc2)c1,inconclusive: 70.5%
4,CC(C)(C)c1cc(N)on1,inactive: -7.8%
5,Fc1ccc(N=c2ssnc2Cl)c(F)c1,active: 91.2%
6,COc1cccc(C2(CSc3nnc(-c4cc(OC)c(OC)c(OC)c4)o3)OCCO2)c1,inconclusive: 75.9%
7,Cc1ccc(-c2nc(CN(C)C3CCOC3)c(C)o2)s1 (centres undefined),inactive: 7.1%
8,COc1cc(C=O)ccc1OCCCOc1ccccc1C(=O)O,inconclusive: 73.2%
9,O=C(O)c1cc(-c2ccco2)nc2ccccc12,inactive: -11.5%
10,Cc1ccc2nc3c(cc(S(=O)(=O)c4ccccc4)c(=N)n3Cc3ccco3)c(=O)n2c1,inconclusive: 84.3%
11,O=c1cc2oc3cc(O)c(O)cc3c(-c3ccccc3O)c-2cc1O,active: 68.3%
12,COc1ccc(-c2[nH]ncc2CN(CC2CCC(=O)N2)C(C)C)cc1F (centres undefined),inconclusive: 60.5%
13,O=C(CN1CCOCC1)Nc1ccccc1-c1ccccc1,inconclusive: 59.9%
14,CN(C)c1ccc(/C=N/NC(=O)c2ccn(C)n2)cc1,inconclusive: 51.2%
15,O=C(NCc1ccncc1)C(=O)N/N=C/c1cccnc1,inconclusive: 54.7%
16,CNC(=O)/C=C1\NC(C)(C)Cc2ccccc21,inconclusive: 71.6%
17,CN(C)C(=O)c1ccc(NC(=O)COc2ccc([N+](=O)[O-])cc2)cc1,inactive: 5.1%
18,O=S(=O)(c1ccccc1)c1ccc(NCc2ccco2)cc1,inconclusive: 73%
19,c1ccc(Nc2ccccc2Nc2ccccn2)nc1,inconclusive: 50%
